We go through one compound from patent US12059418B2, “Plasmodial surface anion channel inhibitors for the treatment or prevention of malaria” (The United States of America, as represented by the …, priority 2011, dated 2024).

Structures are written as SMILES.

For one test, the system named is PSAC. Kind of test: Transport inhibition assay, osmotic lysis of infected cells in sorbitol (Table 5). The settings on record: 37° C., read-out: Transport inhibition K0.5. In kind it is cell-based, P. falciparum.
A further test concerns P. falciparum. Type of test: cell-based. The settings on record: RPMI growth IC50 / PLM growth IC50.

For the compound `NS(=O)(=O)c1cc(C(=O)O)c(NCc2ccco2)cc1Cl` [furosemide, reference compound], the IC50 with PSAC came out at 2.7 µM. Further, in the test on P. falciparum, the IC50 ratio is on record as greater than 9.5.
